Source: the supplement of paper PMC10849652
Some of the results follow.

Amino acid sequences for entries named in this document (tags omitted). A change or cut given only in a name is not applied to a line headed by its entry.
UniProt Q9Y4K4: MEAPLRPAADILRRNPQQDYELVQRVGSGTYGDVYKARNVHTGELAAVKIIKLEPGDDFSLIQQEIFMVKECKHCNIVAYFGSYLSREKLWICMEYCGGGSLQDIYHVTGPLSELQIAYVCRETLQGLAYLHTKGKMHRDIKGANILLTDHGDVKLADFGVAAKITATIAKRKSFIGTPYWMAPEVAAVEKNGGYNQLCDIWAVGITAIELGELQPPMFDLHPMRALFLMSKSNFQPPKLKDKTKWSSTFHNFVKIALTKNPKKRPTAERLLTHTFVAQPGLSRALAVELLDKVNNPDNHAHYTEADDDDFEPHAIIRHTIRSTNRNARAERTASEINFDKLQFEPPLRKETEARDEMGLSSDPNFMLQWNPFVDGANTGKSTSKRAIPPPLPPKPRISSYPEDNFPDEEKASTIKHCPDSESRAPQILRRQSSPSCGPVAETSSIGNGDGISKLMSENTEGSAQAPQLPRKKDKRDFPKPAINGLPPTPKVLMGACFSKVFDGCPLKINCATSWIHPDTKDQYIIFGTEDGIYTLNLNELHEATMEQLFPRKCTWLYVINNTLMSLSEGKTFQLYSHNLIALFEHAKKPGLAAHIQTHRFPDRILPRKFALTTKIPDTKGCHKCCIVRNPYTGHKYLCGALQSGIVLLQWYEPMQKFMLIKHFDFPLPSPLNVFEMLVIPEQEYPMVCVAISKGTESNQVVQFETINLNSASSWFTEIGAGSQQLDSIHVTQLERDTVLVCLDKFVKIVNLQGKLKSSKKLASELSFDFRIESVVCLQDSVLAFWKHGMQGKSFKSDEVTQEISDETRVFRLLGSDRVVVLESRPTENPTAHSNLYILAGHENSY
UniProt P56192: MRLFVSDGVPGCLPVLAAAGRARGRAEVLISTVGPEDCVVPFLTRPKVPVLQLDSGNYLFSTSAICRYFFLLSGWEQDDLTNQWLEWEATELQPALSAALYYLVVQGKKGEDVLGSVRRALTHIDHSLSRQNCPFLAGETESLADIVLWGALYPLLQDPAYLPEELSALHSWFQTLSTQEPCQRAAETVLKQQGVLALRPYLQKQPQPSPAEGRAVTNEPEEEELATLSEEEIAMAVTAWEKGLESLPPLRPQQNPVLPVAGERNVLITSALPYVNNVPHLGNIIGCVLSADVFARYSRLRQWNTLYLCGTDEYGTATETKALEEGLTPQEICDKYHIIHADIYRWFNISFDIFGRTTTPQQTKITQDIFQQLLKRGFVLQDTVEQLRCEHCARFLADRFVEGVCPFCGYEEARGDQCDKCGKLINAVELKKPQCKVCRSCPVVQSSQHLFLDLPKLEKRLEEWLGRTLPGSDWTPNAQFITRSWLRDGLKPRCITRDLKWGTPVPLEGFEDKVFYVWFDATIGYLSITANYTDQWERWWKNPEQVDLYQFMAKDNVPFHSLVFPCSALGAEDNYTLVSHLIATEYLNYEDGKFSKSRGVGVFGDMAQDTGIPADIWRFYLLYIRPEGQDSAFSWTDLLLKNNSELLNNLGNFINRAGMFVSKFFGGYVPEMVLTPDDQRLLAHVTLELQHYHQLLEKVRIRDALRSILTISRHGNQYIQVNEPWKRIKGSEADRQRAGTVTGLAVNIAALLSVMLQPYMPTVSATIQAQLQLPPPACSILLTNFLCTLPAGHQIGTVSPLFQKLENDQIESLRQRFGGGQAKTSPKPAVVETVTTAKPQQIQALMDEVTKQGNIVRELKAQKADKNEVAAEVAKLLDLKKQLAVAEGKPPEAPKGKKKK
UniProt P62312: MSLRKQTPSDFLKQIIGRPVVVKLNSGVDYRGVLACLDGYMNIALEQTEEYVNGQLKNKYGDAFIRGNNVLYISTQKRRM
UniProt Q9UKM7: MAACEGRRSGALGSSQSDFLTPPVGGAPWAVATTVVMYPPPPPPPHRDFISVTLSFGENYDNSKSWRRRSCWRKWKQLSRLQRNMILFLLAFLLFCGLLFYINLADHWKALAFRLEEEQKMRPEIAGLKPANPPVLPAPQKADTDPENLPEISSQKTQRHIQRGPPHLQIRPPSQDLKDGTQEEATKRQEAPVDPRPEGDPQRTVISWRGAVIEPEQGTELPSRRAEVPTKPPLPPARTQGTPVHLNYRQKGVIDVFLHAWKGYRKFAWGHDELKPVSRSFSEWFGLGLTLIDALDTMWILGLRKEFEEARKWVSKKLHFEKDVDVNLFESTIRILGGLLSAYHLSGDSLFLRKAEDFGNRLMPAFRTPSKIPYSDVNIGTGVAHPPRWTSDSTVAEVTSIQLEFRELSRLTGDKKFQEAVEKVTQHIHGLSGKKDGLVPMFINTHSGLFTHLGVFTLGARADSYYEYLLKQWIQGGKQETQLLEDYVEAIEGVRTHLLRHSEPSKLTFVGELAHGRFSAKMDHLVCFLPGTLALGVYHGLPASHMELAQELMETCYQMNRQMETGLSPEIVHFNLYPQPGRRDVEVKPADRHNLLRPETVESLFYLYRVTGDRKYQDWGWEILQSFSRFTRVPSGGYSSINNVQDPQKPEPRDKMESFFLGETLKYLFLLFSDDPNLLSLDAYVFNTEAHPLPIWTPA
UniProt Q8N2S1: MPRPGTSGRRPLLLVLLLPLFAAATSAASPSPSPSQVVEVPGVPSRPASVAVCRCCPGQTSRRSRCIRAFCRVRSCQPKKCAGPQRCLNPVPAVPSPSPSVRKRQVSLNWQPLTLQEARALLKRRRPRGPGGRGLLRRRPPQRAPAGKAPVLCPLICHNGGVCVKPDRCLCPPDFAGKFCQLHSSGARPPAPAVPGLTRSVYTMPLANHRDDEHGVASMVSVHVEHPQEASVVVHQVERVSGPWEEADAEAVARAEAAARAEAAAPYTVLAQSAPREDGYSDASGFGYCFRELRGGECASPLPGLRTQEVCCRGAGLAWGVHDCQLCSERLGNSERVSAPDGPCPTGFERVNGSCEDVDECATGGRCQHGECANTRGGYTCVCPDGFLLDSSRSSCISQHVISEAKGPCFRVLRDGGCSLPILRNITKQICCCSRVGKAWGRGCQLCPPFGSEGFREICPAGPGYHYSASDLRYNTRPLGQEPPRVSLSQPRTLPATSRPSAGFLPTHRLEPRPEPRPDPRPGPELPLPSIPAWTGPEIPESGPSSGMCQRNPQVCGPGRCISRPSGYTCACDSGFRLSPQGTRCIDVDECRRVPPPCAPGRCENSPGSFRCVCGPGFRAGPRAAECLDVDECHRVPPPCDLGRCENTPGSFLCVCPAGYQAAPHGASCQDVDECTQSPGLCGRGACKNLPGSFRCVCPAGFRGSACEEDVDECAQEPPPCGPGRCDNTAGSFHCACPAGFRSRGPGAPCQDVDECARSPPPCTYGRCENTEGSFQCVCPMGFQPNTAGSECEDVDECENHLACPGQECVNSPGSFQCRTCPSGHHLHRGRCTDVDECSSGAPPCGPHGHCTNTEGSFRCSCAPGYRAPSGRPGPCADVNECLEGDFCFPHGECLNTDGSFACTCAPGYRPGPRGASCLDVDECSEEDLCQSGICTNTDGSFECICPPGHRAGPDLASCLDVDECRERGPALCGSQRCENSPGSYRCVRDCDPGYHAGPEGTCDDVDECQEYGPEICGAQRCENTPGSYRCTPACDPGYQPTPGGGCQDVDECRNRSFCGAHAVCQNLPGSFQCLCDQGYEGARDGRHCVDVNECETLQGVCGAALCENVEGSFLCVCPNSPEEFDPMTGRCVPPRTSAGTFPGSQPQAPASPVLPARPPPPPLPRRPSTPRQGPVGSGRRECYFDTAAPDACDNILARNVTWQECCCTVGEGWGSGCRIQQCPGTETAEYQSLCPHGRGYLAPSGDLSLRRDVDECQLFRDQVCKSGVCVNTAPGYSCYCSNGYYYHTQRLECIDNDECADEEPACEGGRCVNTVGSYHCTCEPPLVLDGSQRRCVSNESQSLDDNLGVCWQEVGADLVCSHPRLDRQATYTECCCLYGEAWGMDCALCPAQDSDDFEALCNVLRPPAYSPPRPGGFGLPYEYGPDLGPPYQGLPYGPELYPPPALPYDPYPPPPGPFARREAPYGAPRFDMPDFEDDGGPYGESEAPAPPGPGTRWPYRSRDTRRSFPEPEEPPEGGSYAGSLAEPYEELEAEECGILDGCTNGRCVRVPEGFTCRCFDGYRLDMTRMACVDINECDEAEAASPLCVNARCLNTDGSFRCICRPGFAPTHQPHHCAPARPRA
UniProt Q7L5Y9: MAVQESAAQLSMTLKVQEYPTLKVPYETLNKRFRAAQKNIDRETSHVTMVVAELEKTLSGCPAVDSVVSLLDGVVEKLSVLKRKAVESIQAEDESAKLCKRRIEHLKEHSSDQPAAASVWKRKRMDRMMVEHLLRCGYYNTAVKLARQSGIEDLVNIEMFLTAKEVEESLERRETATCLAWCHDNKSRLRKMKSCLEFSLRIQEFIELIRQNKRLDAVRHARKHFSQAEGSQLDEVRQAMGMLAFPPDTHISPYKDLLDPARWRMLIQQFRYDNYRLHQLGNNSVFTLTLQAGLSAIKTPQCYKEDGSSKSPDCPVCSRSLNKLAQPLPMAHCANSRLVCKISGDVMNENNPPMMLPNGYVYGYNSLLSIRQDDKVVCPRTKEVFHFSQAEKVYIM
UniProt Q8WVR3: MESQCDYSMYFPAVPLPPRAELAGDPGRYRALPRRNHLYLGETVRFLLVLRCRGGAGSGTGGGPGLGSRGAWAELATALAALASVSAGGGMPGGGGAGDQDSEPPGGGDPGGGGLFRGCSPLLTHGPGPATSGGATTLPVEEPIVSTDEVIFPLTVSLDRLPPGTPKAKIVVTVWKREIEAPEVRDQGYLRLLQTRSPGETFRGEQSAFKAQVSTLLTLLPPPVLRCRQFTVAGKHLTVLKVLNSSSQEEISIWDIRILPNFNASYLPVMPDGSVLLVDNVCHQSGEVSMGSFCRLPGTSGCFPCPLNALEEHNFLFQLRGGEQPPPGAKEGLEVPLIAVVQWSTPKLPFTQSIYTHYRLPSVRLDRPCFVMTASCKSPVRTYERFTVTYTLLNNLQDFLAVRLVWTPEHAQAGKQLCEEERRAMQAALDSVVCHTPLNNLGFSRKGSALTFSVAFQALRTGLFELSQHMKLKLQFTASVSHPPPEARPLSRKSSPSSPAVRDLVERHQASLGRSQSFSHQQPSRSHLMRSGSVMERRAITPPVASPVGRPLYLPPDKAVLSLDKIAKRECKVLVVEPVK
UniProt P33908: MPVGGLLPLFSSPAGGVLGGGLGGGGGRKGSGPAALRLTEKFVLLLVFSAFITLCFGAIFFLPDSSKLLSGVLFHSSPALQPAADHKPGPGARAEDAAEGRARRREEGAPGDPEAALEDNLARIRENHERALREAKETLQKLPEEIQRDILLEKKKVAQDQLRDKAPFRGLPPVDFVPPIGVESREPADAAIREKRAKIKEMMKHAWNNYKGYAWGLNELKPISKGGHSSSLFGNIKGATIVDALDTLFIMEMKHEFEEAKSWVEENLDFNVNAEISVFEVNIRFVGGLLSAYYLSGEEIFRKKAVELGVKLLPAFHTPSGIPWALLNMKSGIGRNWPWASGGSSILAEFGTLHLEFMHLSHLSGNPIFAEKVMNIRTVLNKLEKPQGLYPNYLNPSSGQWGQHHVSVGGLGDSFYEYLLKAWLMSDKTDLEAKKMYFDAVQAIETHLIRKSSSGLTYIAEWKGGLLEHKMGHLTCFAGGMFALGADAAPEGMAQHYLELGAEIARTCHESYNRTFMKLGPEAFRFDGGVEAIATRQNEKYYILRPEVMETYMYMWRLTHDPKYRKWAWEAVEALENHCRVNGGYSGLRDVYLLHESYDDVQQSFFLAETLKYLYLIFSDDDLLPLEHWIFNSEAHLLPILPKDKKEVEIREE
UniProt P09960: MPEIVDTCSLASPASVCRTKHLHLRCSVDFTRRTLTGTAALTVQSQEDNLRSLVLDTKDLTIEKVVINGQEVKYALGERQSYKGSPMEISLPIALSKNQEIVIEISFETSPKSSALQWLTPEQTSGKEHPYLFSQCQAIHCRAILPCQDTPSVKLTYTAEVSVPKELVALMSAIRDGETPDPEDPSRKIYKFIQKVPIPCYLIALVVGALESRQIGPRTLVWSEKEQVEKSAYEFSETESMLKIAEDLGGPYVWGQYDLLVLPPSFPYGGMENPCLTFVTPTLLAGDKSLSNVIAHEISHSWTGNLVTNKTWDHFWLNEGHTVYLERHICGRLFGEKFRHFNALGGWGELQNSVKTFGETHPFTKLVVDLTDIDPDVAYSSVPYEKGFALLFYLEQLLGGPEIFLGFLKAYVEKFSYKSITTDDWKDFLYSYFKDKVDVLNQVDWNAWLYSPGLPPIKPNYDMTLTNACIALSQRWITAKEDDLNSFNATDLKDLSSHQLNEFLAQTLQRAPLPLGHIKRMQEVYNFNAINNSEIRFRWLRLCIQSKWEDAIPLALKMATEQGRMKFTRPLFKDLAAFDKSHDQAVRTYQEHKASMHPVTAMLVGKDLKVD
UniProt O43325: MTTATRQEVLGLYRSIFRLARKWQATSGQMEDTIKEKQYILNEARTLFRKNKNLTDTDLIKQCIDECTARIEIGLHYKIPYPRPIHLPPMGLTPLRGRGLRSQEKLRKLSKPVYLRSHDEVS

Experiments:
Assay in all cases: log2 fold change, soluble protein after heating vs DMSO (PISA); higher = thermal stabilisation; K562 cells, 10 uM, 30 min; active = over 0.2 and 3.5 SD of the protein, either way, in both replicates (recomputed)
[1] = compound: COC1=CC=C(C=C1)CN2C=CC3=C2C=C(C=C3)C(=O)NO
How it was run: (§1)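 Thermal stability values are relative to control samples and come from duplicates. They are expressed as log2 fold changes. For measurement, K562 cells (2×10^6 cells/mL) received 10 μM compound for 30 min, and aliquots were heated for 3 min over 48°C-58°C, pooled, and extracted at 4°C in PBS with 0.5% NP-40. Soluble protein, the supernatant after 21,000xg for 90 min, was quantified by TMTpro 16plex LC-MS/MS with equalised channel sums.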

filanesib = compound: CON(C)C(=O)N1N=C(c2cc(F)ccc2F)S[C@@]1(CCCN)c1ccccc1 [filanesib]
How it was run: as §1

zotarolimus = compound: CO[C@H]1C[C@@H]2CC[C@@H](C)[C@@](O)(O2)C(=O)C(=O)N2CCCC[C@H]2C(=O)O[C@H]([C@H](C)C[C@@H]2CC[C@H](n3cnnn3)[C@H](OC)C2)CC(=O)[C@H](C)/C=C(\C)[C@@H](O)[C@@H](OC)C(=O)[C@H](C)C[C@H](C)/C=C/C=C/C=C/1C [zotarolimus]
How it was run: as §1

idasanutlin = compound: COc1cc(C(=O)O)ccc1NC(=O)[C@@H]1N[C@@H](CC(C)(C)C)[C@](C#N)(c2ccc(Cl)cc2F)[C@H]1c1cccc(Cl)c1F [idasanutlin]
How it was run: as §1

alisertib = compound: COc1cc(Nc2ncc3c(n2)-c2ccc(Cl)cc2C(c2c(F)cccc2OC)=NC3)ccc1C(=O)O [alisertib]
How it was run: as §1

[2] = compound: COc1cc2nc(-c3cc(F)ccc3O)nc(N[C@@H]3CNC[C@H]3C(C)(C)O)c2cc1OC
How it was run: as §1

gefitinib = compound: COc1cc2ncnc(Nc3ccc(F)c(Cl)c3)c2cc1OCCCN1CCOCC1 [gefitinib]
How it was run: as §1

[3] = compound: COc1cccc2cc(-c3nc([C@H]4CC[C@H](C(=O)O)CC4)n4ncnc(N)c34)[nH]c12
How it was run: as §1

lapatinib = compound: CS(=O)(=O)CCNCc1ccc(-c2ccc3ncnc(Nc4ccc(OCc5cccc(F)c5)c(Cl)c4)c3c2)o1 [lapatinib]
How it was run: as §1

pictilisib = compound: CS(=O)(=O)N1CCN(Cc2cc3nc(-c4cccc5[nH]ncc45)nc(N4CCOCC4)c3s2)CC1 [pictilisib]
How it was run: as §1

Measured: log2 fold change

MAP4K5 (UniProt Q9Y4K4)
inactive: [1] 0.01 | filanesib -0.083 | zotarolimus 0.021 | idasanutlin 0.067 | alisertib 0.134 | [2] 0.224 | gefitinib -0.011 | [3] 0.011 | lapatinib 0.15 | pictilisib 0.012

MARS (UniProt P56192)
inactive: [1] 0.004 | filanesib 0.058 | zotarolimus 0.04 | idasanutlin -0.017 | alisertib -0.089 | [2] -0.007 | gefitinib 0 | [3] -0.038 | lapatinib 0.009 | pictilisib -0.065

LTN1 isoform 3 (UniProt O94822)
inactive: [1] 0 | filanesib -0.009 | zotarolimus 0.039 | idasanutlin -0.136 | alisertib 0.01 | [2] 0.04 | gefitinib -0.04 | [3] -0.108 | lapatinib -0.029 | pictilisib -0.157

MAIP1 (UniProt Q8WWC4)
inactive: [1] 0.054 | filanesib -0.12 | zotarolimus -0.025 | idasanutlin -0.033 | alisertib -0.047 | [2] -0.088 | gefitinib -0.002 | [3] 0.095 | lapatinib 0.036 | pictilisib 0.01

LSM6 (UniProt P62312)
inactive: [1] -0.008 | filanesib 0.012 | zotarolimus 0.053 | idasanutlin -0.039 | alisertib -0.097 | [2] -0.07 | gefitinib -0.008 | [3] 0.046 | lapatinib 0.042 | pictilisib -0.267

MAN1B1 (UniProt Q9UKM7)
inactive: [1] -0.06 | filanesib -0.032 | zotarolimus 0.046 | idasanutlin -0.042 | alisertib 0.002 | [2] 0.056 | gefitinib -0.003 | [3] -0.021 | lapatinib 0.026 | pictilisib -0.017

LTBP4 (UniProt Q8N2S1)
inactive: [1] 0.099 | filanesib 0.027 | zotarolimus -0.002 | idasanutlin 0.161 | alisertib -0.07 | [2] 0.003 | gefitinib 0.145 | [3] 0.114 | lapatinib 0.055 | pictilisib 0.054

MAN2A2 (UniProt P49641)
inactive: [1] -0.043 | filanesib 0.044 | zotarolimus -0.042 | idasanutlin -0.01 | alisertib -0.141 | [2] 0.108 | gefitinib 0.083 | [3] -0.004 | lapatinib 0.042 | pictilisib 0.089

M6PR (UniProt P20645)
inactive: [1] -0.059 | filanesib -0.054 | zotarolimus -0.033 | idasanutlin 0.059 | alisertib -0.049 | [2] -0.167 | gefitinib 0.045 | [3] 0 | lapatinib 0.031 | pictilisib 0.214

LYAR (UniProt Q9NX58)
inactive: [1] -0.123 | filanesib 0.861 | zotarolimus 0.136 | idasanutlin 0.367 | alisertib -0.122 | [2] 0.121 | gefitinib -0.051 | [3] -0.13 | lapatinib 0.21 | pictilisib 0.016

LRRC8E (UniProt Q6NSJ5)
inactive: [1] -0.028 | filanesib 0.221 | zotarolimus -0.058 | alisertib -0.065 | [2] -0.066 | [3] -0.01 | lapatinib 0.052 | pictilisib 0.117

MAFF (UniProt Q9ULX9)
inactive: [1] -0.115 | filanesib -0.311 | idasanutlin 0.088 | alisertib -0.073 | gefitinib -0.103 | [3] -0.159 | pictilisib -0.093

MAEA (UniProt Q7L5Y9)
inactive: [1] 0.013 | filanesib 0.026 | zotarolimus 0.03 | idasanutlin -0.012 | alisertib -0.102 | [2] -0.032 | gefitinib 0.065 | [3] 0.042 | lapatinib 0.065 | pictilisib 0.019

MARK2 (UniProt E9PC69)
active: [2] -0.765
inactive: [1] -0.028 | filanesib 0.128 | zotarolimus 0.122 | idasanutlin 0.106 | gefitinib -0.025 | lapatinib 0.085

MAP4 (UniProt E7EVA0)
inactive: [1] -0.027 | filanesib 0.216 | zotarolimus -0.1 | idasanutlin 0.023 | alisertib -0.094 | [2] -0.134 | gefitinib 0.109 | [3] -0.024 | lapatinib 0.186 | pictilisib 0.019

MAP11 (UniProt Q8WVR3)
inactive: [1] -0.117 | filanesib 0.216 | zotarolimus -0.138 | alisertib -0.032 | gefitinib -0.086 | [3] 0.105 | pictilisib 0.105

LYPLA2 (UniProt O95372)
inactive: [1] 0.188 | filanesib 0.014 | zotarolimus 0.002 | idasanutlin 0.027 | alisertib 0.121 | [2] -0.23 | gefitinib 0.047 | [3] 0.044 | lapatinib -0.048 | pictilisib -0.026

MAPK9 (UniProt P45984)
inactive: [1] -0.004 | filanesib -0.01 | zotarolimus -0.022 | idasanutlin -0.062 | alisertib -0.072 | [2] 0.043 | gefitinib 0.009 | [3] 0.001 | lapatinib -0.039 | pictilisib 0.075

LSM5 (UniProt Q9Y4Y9)
inactive: [1] -0.114 | filanesib -0.101 | zotarolimus -0.055 | alisertib -0.09 | gefitinib -0.042 | [3] 0.179 | pictilisib -0.423

MAP4K2 (UniProt Q12851)
inactive: [1] 0.02 | filanesib -0.143 | zotarolimus -0.083 | [2] 0.426 | gefitinib 0.034 | lapatinib -0.011

MAN1A1 (UniProt P33908)
inactive: [1] 0.015 | filanesib 0.012 | zotarolimus -0.015 | idasanutlin -0.051 | alisertib -0.146 | [2] -0.032 | gefitinib 0.071 | [3] 0.062 | lapatinib 0.011 | pictilisib 0.016

LSM14B (UniProt Q9BX40)
inactive: [1] -0.004 | filanesib 0.067 | zotarolimus -0.045 | idasanutlin 0.124 | alisertib -0.135 | [2] 0.163 | gefitinib -0.056 | [3] -0.067 | lapatinib 0.009 | pictilisib 0.037

LTA4H (UniProt P09960)
inactive: [1] 0.03 | filanesib -0.124 | zotarolimus 0.033 | idasanutlin -0.084 | alisertib -0.029 | [2] 0.019 | gefitinib 0 | [3] 0.012 | lapatinib 0.012 | pictilisib 0.083

MANBA (UniProt O00462)
inactive: [1] -0.082 | filanesib -0.014 | zotarolimus -0.026 | idasanutlin 0.026 | alisertib -0.037 | [2] -0.045 | gefitinib 0.028 | [3] 0.035 | lapatinib 0.126 | pictilisib -0.041

MAGI3 isoform 1 (UniProt Q5TCQ9)
inactive: [1] 0.235 | filanesib 0.013 | idasanutlin -0.244 | alisertib -0.133 | [3] 0.059

LSM14A isoform 2 (UniProt Q8ND56)
inactive: [1] -0.06 | filanesib 0.074 | zotarolimus -0.025 | idasanutlin -0.034 | alisertib -0.045 | [2] 0.152 | gefitinib -0.034 | [3] -0.032 | lapatinib -0.067 | pictilisib 0.056

Fetched one by one from above, 2 records:
LTA4H (UniProt P09960)
inactive: [1] 0.03 | filanesib -0.124 | zotarolimus 0.033 | idasanutlin -0.084 | alisertib -0.029 | [2] 0.019 | gefitinib 0 | [3] 0.012 | lapatinib 0.012 | pictilisib 0.083

LSM14A isoform 2 (UniProt Q8ND56)
inactive: [1] -0.06 | filanesib 0.074 | zotarolimus -0.025 | idasanutlin -0.034 | alisertib -0.045 | [2] 0.152 | gefitinib -0.034 | [3] -0.032 | lapatinib -0.067 | pictilisib 0.056

(continued)

LYRM1 (UniProt O43325)
inactive: [1] -0.025 | filanesib -0.028 | zotarolimus 0.019 | alisertib -0.006 | [2] 0.029 | gefitinib -0.025 | [3] -0.014 | lapatinib 0.091 | pictilisib 0.135

MAP3K20 (UniProt Q9NYL2)
inactive: [1] 0.04 | filanesib 0.075 | zotarolimus 0.033 | idasanutlin 0.064 | [2] 0.048 | gefitinib -0.042 | [3] -0.059 | lapatinib 0 | pictilisib -0.02

LRSAM1 (UniProt Q6UWE0)
inactive: [1] 0.024 | filanesib -0.058 | zotarolimus 0.004 | idasanutlin -0.007 | alisertib -0.018 | [2] 0.002 | gefitinib 0.009 | [3] -0.011 | lapatinib 0.01 | pictilisib 0.045

LSR (UniProt Q86X29)
inactive: [1] 0.107 | filanesib 0.116 | zotarolimus -0.011 | idasanutlin -0.022 | alisertib -0.122 | [2] 0.027 | gefitinib 0.021 | [3] 0.033 | lapatinib -0.056 | pictilisib 0.121

MAPK14 (UniProt Q16539)
active: gefitinib 0.796
inactive: [1] 0.024 | filanesib -0.055 | zotarolimus 0.059 | idasanutlin -0.361 | alisertib -0.014 | [2] 0.014 | [3] 0.303 | lapatinib -0.002 | pictilisib -0.05

MAPKAPK5 (UniProt Q8IW41)
inactive: [1] -0.011 | filanesib -0.133 | zotarolimus 0.009 | idasanutlin -0.017 | alisertib -0.084 | [2] 0.269 | gefitinib 0 | [3] -0.038 | lapatinib 0.078 | pictilisib 0.134
